From PubChem BioAssay AID2685 (National Center for Advancing Translational Sciences (NCATS), 2010)
This is one part of the list. These are further read-outs of the screen, such as a control signal, another cell line or another target. No call is given for them. Compounds called inactive in the main read-out are mostly missing here. Potencies come from curve fits of mixed quality, noted in brackets.

Assay: qHTS Assay for Lipid Storage Modulators in Drosophila S3 Cells;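 for cell number change: cells counted by Cell Tracker Red CMTPX staining in the red channel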
Conditions: BODIPY lipid droplet fluorescence, 18-24 h; for cell number change: measured here: cell count max response, cells fed with added oleic acid
How it was run: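 Drosophila S3 cells loaded with oleic acid (400 uM, as added) and compounds at several concentrations; lipid droplets imaged by 488-nm laser-scanning cytometry, 500–530 nm intensity and object ratio to cell channel. Percent activity normalized to 20 uM Triacsin C.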

[1] = measured here: cell number channel AC50, cells fed with added oleic acid
[2] = measured here: lipid fluorescence (Fed channel) AC50, cells fed with added oleic acid

SMILES | cell number change | AC50 [1] | AC50 [2]
Cc1ccc2nc(C)cc(C(=O)OCC(=O)c3ccc(Cl)c([N+](=O)[O-])c3)c2c1 | 34.8% | 10.3 µM [rising, single point] | 23.1 µM [rising, partial curve]
COc1ccccc1C1=NNC(=Nc2cccc(S(=O)(=O)N(C)C)c2)SC1 | – | – | 0.731 µM [falling, single point]
Cc1ccc(C)c(S(=O)(=O)Nc2cccc(-n3cnnn3)c2)c1 | -10.5% | – | 20.6 µM [falling, partial curve]
COc1ccc(NC(=O)CN(C)C(=O)c2cccc(S(=O)(=O)N3CCN(Cc4ccccc4)CC3)c2)cc1 | 18.4% | 2.59 µM [rising, single point] | –
Cc1cc(C)n(C(C)n2nc(C)cc2C)n1 | 11.4% | – | 18.4 µM [falling, single point]
CCOc1ccc(CNC2CCCc3ccccc32)cc1 (centres undefined) | 57.1% | 13 µM [rising, single point] | 2.31 µM [rising, single point]
Cc1ccc(N2CCN(CC(O)COc3cccc(C)c3)CC2)cc1 (centres undefined) | -37% | 29.1 µM [falling, single point] | 29.1 µM [falling, single point]
C=CCN(CC=C)C(=O)CN1C(=O)NC(c2ccccc2)(c2ccccc2)C1=O | -1.28% | – | –
COC(=O)CC(=O)N1CCN(c2ccc(Cl)c(Cl)c2)CC1 | -6.27% | 0.291 µM [falling, partial curve, poor fit] | –
CCCn1c(C(C)Nc2nc(-c3ccc(C)cc3)cs2)nc2cc(Cl)c(N3CCCCC3)cc21 (centres undefined) | 20.4% | – | 3.26 µM [rising, single point]
COc1ccccc1/C=C/C(=O)c1ccccc1 | -63.8% | 25.9 µM [falling, partial curve] | 16.4 µM [falling, partial curve, poor fit]
COc1ccc(N2C(=O)CSC23C(=O)Nc2ccccc23)cc1OC (centres undefined) | -17.9% | – | 0.411 µM [falling, partial curve]
COc1cccc(-n2nc(-c3ccnn3-c3ccccc3)c(=O)n(C)c2=O)c1 | – | 3.66 µM [rising, single point] | 2.06 µM [rising, partial curve]
Cc1cccc(OCc2nnc(SCC(=O)N3CC(=O)Nc4ccccc43)o2)c1 | 16.6% | – | 0.146 µM [rising, full curve, poor fit]
O=C1C2CC=CCC2C(=O)N1Cc1ccccc1Cl (centres undefined) | 7.29% | – | –
Cc1[nH]n(-c2nc(-c3ccccc3)cc(=O)[nH]2)c(=O)c1CCO | 2.21% | – | –
CC1CC1c1ccc(/C=C(\C#N)C(=O)Nc2ccc(Cl)cc2)o1 (centres undefined) | 7.62% | 3.66 µM [rising, single point] | 0.058 µM [rising, full curve, poor fit]
CC1CC(C)CN(CCCNC(=O)c2ccc3nc(N4CCCCC4)sc3c2)C1 (centres undefined) | -8.38% | – | 1.84 µM [falling, partial curve, poor fit]
O=C(CSc1nc2ccccc2c(=O)n1-c1ccccc1Cl)NCC1CCCO1 (centres undefined) | -9.3% | – | –
CN1C(=O)c2ccccc2Sc2ccc(C(=O)O)cc21 | 61.3% | 29.1 µM [rising, single point] | –

By substructure, the compounds so far containing an aryl methoxy group
SMILES | cell number change | AC50 [1] | AC50 [2]
COc1ccccc1C1=NNC(=Nc2cccc(S(=O)(=O)N(C)C)c2)SC1 | – | – | 0.731 µM [falling, single point]
COc1ccc(NC(=O)CN(C)C(=O)c2cccc(S(=O)(=O)N3CCN(Cc4ccccc4)CC3)c2)cc1 | 18.4% | 2.59 µM [rising, single point] | –
COc1ccccc1/C=C/C(=O)c1ccccc1 | -63.8% | 25.9 µM [falling, partial curve] | 16.4 µM [falling, partial curve, poor fit]
COc1ccc(N2C(=O)CSC23C(=O)Nc2ccccc23)cc1OC (centres undefined) | -17.9% | – | 0.411 µM [falling, partial curve]
COc1cccc(-n2nc(-c3ccnn3-c3ccccc3)c(=O)n(C)c2=O)c1 | – | 3.66 µM [rising, single point] | 2.06 µM [rising, partial curve]

(further entries)

SMILES | cell number change | AC50 [1] | AC50 [2]
O=C(O)CCC(=O)N1CCc2cc(S(=O)(=O)N3CC=C(c4ccccc4)CC3)ccc21 | 26.9% | – | 8.2 µM [rising, partial curve, poor fit]
C/C=C/C(=O)OCC(=O)Nc1cccc(S(=O)(=O)NC2=NCCCCC2)c1 | -2.8% | – | 0.366 µM [rising, full curve, poor fit]
Cc1cc(C(=O)COc2cccnc2[N+](=O)[O-])c(C)n1Cc1ccco1 | – | – | 0.13 µM [rising, single point]
COc1ccc(CC(=O)OCC(=O)N2CCCC(C)C2)cc1 (centres undefined) | 31% | 32.6 µM [rising, single point] | –
CCC(=O)N(Cc1cc(=O)[nH]c2ccccc12)c1cccc(C)c1 | 32.4% | 8.2 µM [rising, partial curve, poor fit] | 16.4 µM [rising, partial curve]
COc1cccc2cc(C(=O)Nc3ccc(S(=O)(=O)NCC4CCCO4)cc3)c(=O)oc12 (centres undefined) | 9.06% | – | 0.231 µM [rising, full curve, poor fit]
COc1ccc(CNC(=O)C[C@H]2C(=O)N(CCc3ccccc3)C[C@@H]2Cc2ccccc2)cc1 | 5.69% | – | –
COc1ccc(CCSc2nnc(C3CCCCC3)n2N)cc1 | 14.5% | – | –
CC(OC(=O)c1ccc2ncsc2c1)C(=O)N1CCCC1 (centres undefined) | – | – | 2.59 µM [rising, single point]
CC(=O)c1ccc(NC(=O)NNS(=O)(=O)c2ccc([N+](=O)[O-])cc2)cc1 | -13.3% | – | 1.16 µM [falling, full curve]
c1ccc(-c2ccc(-c3nc(-c4cccnc4)no3)cc2)cc1 | -30% | – | 0.0326 µM [falling, full curve, poor fit]
CCCCCOC(=O)c1ccc(NC(=O)c2cccc(NC(=O)c3ccccc3C(=O)O)c2)cc1 | -19.9% | – | –
Cc1cccc(NC(=S)NCc2ccncc2)c1C | 64.1% | 10.3 µM [rising, partial curve, poor fit] | 23.1 µM [rising, partial curve]
Cc1ccc(SCCNS(C)(=O)=O)cc1 | -0.625% | – | 0.58 µM [rising, single point]
CCCCN1C(=O)C2(NNc3ccccc3O2)c2ccccc21 (centres undefined) | -59.2% | 18.4 µM [falling, single point] | 23.1 µM [falling, single point]
O=C(CSc1ncnc2scc(-c3ccccc3)c12)Nc1ccc(C(=O)O)cc1 | 22.9% | 6.51 µM [falling, single point] | 3.66 µM [falling, single point]
Cc1ccc(/C(O)=C2/C(=O)C(=O)N(c3ccccn3)C2c2ccc(F)cc2)cc1 (centres undefined) | 8.11% | – | 29.1 µM [rising, partial curve]
COc1ccc(NC(=O)c2cc(OC)c(OC)c(OC)c2Br)cc1OC | – | – | 2.31 µM [rising, single point]
CC(=O)N1CC(c2ccccc2)C(c2ccc(Cl)cc2)=N1 (centres undefined) | 1.07% | – | 1.64 µM [falling, partial curve]
CC1CCN(C(=O)c2ccc(SCc3ccccc3F)c([N+](=O)[O-])c2)CC1 | 14% | – | 10.3 µM [rising, partial curve, poor fit]

SMILES | cell number change | AC50 [1] | AC50 [2]
COCCN(C(=O)CCC(=O)Nc1cc(C)on1)C(C(=O)NC(C)(C)C)c1ccccc1Cl (centres undefined) | 5.65% | – | –
C/C(=N\NC(=O)c1nn(C)cc1Br)c1cccc(NC(=O)c2ccncc2)c1 | 27% | – | 6.51 µM [rising, partial curve]
O=C(CCN1C(=O)C2C3CCC(C3)C2C1=O)OCC(=O)c1cccc([N+](=O)[O-])c1 (centres undefined) | -38.9% | 1.84 µM [falling, partial curve] | –
C#CCn1c(=NC(=O)c2ccccc2[N+](=O)[O-])sc2cc(S(C)(=O)=O)ccc21 | 117% | 11.6 µM [rising, partial curve] | 29.1 µM [falling, single point]
Cc1ccc(N(C(=O)CCC(=O)Nc2cc(C)on2)C(C(=O)NC2CCCC2)c2ccncc2)cc1 (centres undefined) | 21.5% | – | 0.651 µM [rising, full curve]
CCc1ccc(NC(=O)Nc2cccc(OC)c2)cc1 | 46.8% | 29.1 µM [rising, single point] | 29.1 µM [rising, single point]
COCc1c(C(=O)OC)nnn1-c1ccc(C(F)(F)F)cc1[N+](=O)[O-] | -24.9% | – | –
CC(C)OC(=O)CSc1nc2ncccc2[nH]1 | -10.6% | – | –
CCCCCC(=O)Nc1ccc(S(=O)(=O)Nc2nccc(C)n2)cc1 | 9.3% | – | 0.92 µM [rising, full curve, poor fit]
COc1ccccc1OCCCOc1c(C)cc(C)cc1Br | 4.72% | – | 29.1 µM [rising, single point]
CCCCN(C(=O)CSCC(=O)Nc1ccc(C)cc1)c1c(N)n(CC(C)C)c(=O)[nH]c1=O | -18.2% | – | –
NS(=O)(=O)c1cc2c(cc1Cl)NC(Cc1ccccc1)NS2(=O)=O (centres undefined) | 1.92% | – | 18.4 µM [falling, single point]
COCCSc1ccccc1C(=O)Nc1ccc(S(=O)(=O)N2CCOCC2)cc1 | -1.65% | – | 4.11 µM [falling, single point]
COc1ccc2c(c1)[nH]c1c(=O)n(/N=C/c3ccc(OC)c(CN4CCCCC4)c3)cnc12 | 32.2% | 1.84 µM [rising, full curve, poor fit] | 8.2 µM [rising, partial curve, poor fit]
CC(C(=O)Nc1cc(C(F)(F)F)ccc1N1CCOCC1)N1C(=O)C2CCCCC2C1=O (centres undefined) | 4.23% | – | 0.0058 µM [falling, full curve, poor fit]
Cn1c(SCC(=O)c2cccs2)nnc1-c1ccco1 | -0.0553% | – | –
COc1cc(NC(=O)c2cc([N+](=O)[O-])ccc2Br)ccc1NC(=O)c1ccco1 | 13.3% | 6.51 µM [rising, single point] | 23.1 µM [rising, partial curve]
O=C(CSc1nnc(-c2ccccc2Cl)o1)N1CCOCC1 | -24.8% | – | –
CC(C)(C)c1ccccc1OCC(=O)Nc1ncn[nH]1 | 4.29% | – | –
CC1=[N+]([O-])C(C)(C)CC(C)(C)c2ccccc21 | – | – | 5.8 µM [falling, partial curve]
